Reference: US20190256610A1 (NATIONAL UNIVERSITY CORPORATION HOKKAIDO UNIVERSITY, published 2019)
These are yes or no findings as the source states them, for the method shown. Some results given as binding are weak or reduced against the parent protein; the word gives no strength.

Key:
[1] = biological target: T1, human Eva1 protein (human, UniProt O60487 27-150, limits assumed); assay: SPR (Biacore)
T1 construct: Soluble analyte in the SPR work and partner in the crystal; it calls it 'the antigen, that is, the Eva1 protein'; also called human-derived Eva1 protein; hEva1
T1 sequence: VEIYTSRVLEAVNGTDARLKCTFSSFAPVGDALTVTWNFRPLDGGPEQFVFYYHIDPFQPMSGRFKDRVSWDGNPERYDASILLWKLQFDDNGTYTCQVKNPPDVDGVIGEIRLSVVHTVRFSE

[2] = biological target: T1, human Eva1 protein; assay: SPR
[3] = biological target: T2, mouse Eva1 protein (mouse, UniProt O70255 27-150, limits assumed); assay: SPR
T2 construct: Used in SPR; also called mouse-derived Eva1 protein; mEva1
T2 sequence: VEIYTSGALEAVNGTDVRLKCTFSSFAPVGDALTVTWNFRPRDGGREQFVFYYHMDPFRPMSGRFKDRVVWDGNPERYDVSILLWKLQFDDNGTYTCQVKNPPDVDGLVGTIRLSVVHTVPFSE

[4] = biological target: T1, human Eva1 protein; assay: crystal structure, 2.0 angstrom

B1: C3 mouse antibody (antibody, mouse IgG1, V domains shown)
VH: EVKLVESGGGLVQPGGSLKLSCAASGFTFSSYTMSWVRQTPEKRLEWVAYITTGAGRTYYPDTVKGRFTISRDNAKNTLYLQMSSLKSEDTAMYYCARHRGDYWGQGTSVTVSS
VL: SIVMTQTPKFLLVSAGDRVTITCKASQSVSNDVAWYQQKPGQSPKLLIYYASNRFTGVPDRFTGSGYGTDFTFTISTVQAEDLAVYFCQQDYSSPWTFGGGTKLEIK
notes: Mouse monoclonal from a hybridoma; also called C3 antibody
binding [1]: binds | binding [2]: binds | binding [3]: binds

B2: B2E5-48 mouse antibody (antibody, mouse IgG2b, V domains shown)
VH: QVQLQQPGAELVKPGASVKLSCKASGYTFTNYWMHWVKLRPGQGFEWIGEINPTNGGTDYNEKFKRKATLTVDKSSSTAYMQLSSLTSEDSAVYYCTIYTTALDYWGQGTTLTVSS
VL: QIVLTQSPALMSASPGERVTLTCSASSSVGYMYWYQQKPGSSPKPWIYVTSNLASGVPARFSGSGSGTSYSLTISSMEAEDAATYYCQQWSSNPPTFGAGTKLELK
notes: Mouse monoclonal from a hybridoma; also called B2E5-48 antibody
binding [1]: binds | binding [2]: binds

B3: A5D11-10 mouse antibody (antibody, V domains shown)
VH: EVQLKESGPGLVQPSQSLSITCTVSGFSLTRYGVHWVRQSPGKGLEWLGVIWSGGSTDYNAAFISRLSISKDNSKSQVFFKMNSLQANDTAIYYCARNGYDGGYAMDYWGQGTSVTVSS
VL: DIQMTQTTSSLSASLGDRVTISCRASQDISNYLNWYQQKPDGTVKLLIYYTSRLHSGVPSRFSGSGSRIDYSLTISNLEQEDFATYFCQQSDTLPPWTFGGGTKLEIK
notes: Mouse monoclonal from a hybridoma; also called A5D11-10 antibody
binding [1]: binds | binding [2]: binds | binding [3]: binds

B4: Fab of the A5D11-10 antibody (Fab, V domains shown)
VH: EVQLKESGPGLVQPSQSLSITCTVSGFSLTRYGVHWVRQSPGKGLEWLGVIWSGGSTDYNAAFISRLSISKDNSKSQVFFKMNSLQANDTAIYYCARNGYDGGYAMDYWGQGTSVTVSS
VL: DIQMTQTTSSLSASLGDRVTISCRASQDISNYLNWYQQKPDGTVKLLIYYTSRLHSGVPSRFSGSGSRIDYSLTISNLEQEDFATYFCQQSDTLPPWTFGGGTKLEIK
binding [4]: binds
